## Library screen at single concentrations

Sequences of proteins named here, by UniProt entry; tags and fusion partners are left off.
UniProt P9WFT3, whole entry: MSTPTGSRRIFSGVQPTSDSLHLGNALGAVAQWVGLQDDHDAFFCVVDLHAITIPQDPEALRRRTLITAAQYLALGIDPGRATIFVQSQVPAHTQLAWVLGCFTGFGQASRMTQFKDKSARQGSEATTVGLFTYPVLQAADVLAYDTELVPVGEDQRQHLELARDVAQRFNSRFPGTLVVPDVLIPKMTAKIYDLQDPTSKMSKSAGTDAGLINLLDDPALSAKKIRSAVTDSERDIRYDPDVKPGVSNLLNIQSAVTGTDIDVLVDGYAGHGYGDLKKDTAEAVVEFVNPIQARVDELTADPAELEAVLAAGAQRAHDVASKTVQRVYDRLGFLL

From ChEMBL document CHEMBL3988442, “University of Dundee, Small-Polar-MMV Screening Library” (2021).

A: 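Cell assay of Leishmania donovani living inside macrophages; the read-out is not stated. Concentration: 30 µM. Direction is inferred from retests: higher values go with stronger inhibition. About 69,000 compounds were tested under these conditions; 1.5% (about 1,000) showed 50% or more at least once.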
B: 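Enzyme assay of tryptophanyl-tRNA synthetase; the read-out is not stated. Target: Tryptophan-tRNA ligase, Mycobacterium tuberculosis (UniProt P9WFT3). Compounds at 10 µM. Higher most likely means stronger inhibition; the record gives no direction and few retests gave an IC50. About 65,000 compounds were tested under these conditions; 0.098% (about 64) showed 50% or more at least once.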
C: 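Whole-parasite assay of Trypanosoma brucei over 72 hours; the read-out is not stated. Concentration: 30 µM. Direction is inferred from retests: higher values go with stronger inhibition. Values scatter widely below zero; nearly all retest evidence comes from the higher of the two concentrations used. Of about 64,000 compounds tested this way, about 940 (1.5%) reached 50% or more in at least one test.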

Results are given as percent effect. How 0% and 100% were set is not recorded. Most values in the screen are low, and negative values occur. The compounds are a random part of those screened. Two or more numbers in one place are separate tests of the same structure; such repeats can differ widely. A dash means the value is not listed here; it may have been measured.

| SMILES | A | B | C |
|---|---|---|---|
| `CC(C)c1nn(C)c(N2CCOCC2)c1CNC(C)c1ccccn1` (configuration not stated) | 10.88% | -7.012% | 19.39% |
| `CNS(=O)(=O)c1ccc(C(=O)N2CCCCC2c2ccc(C)cc2)o1` (configuration not stated) | 18.04% | 5.503% | -0.2841% |
| `O=C(CCOc1cccc(F)c1)N1CCCC1Cn1cccn1` (configuration not stated) | 26.87% | -6.09% | -18.79% |
| `CCOc1c(C(N)=O)cn(C)c1-c1nc2cc(NC(C)=O)ccc2n1C` | 19.06% | -2.031% | -30.66% |
| `Cn1cc(C(=O)N2CCC(c3cc(CCO)n(C)n3)C2)cn1` (configuration not stated) | 26.81% | -1.48% | -7.412% |
| `[H][C@@]12CC[C@H](Oc3ccccc3Cl)[C@]1([H])CN(C(=O)Cn1ccnc1)C2` | 1.81% | - | -3.852% |
| `CN(C)c1cccc(CNCc2ccc(N3CCOCC3)cc2)c1` | -11.71% | -1.548% | -50.61% |
| `O=C1NCCCC1NC(=O)C1(c2cccc(Cl)c2)CCC1` (configuration not stated) | 8.492% | 0.8081% | -36.8% |
| `CNc1cncc(C2CCN(C(=O)c3coc(C)n3)CC2)n1` | -6.901% | 11.19% | -2.996% |
| `CCCN1CCC(NC(=O)c2csc(C)c2C)CC1` | 9.8% | -5.523% | -65.99% |
| `Cc1ccc(CN2CCC3(CC2)NC(=O)CC3c2ccncc2)cc1C` (configuration not stated) | - | -4.708% | - |
| `CCOc1ccc(N2CCCN=C2NC(=O)c2cccc(C)c2)cc1` | 12.53% | -1.554% | -8.804% |
| `Cc1ccc(C(=O)N2CCN(Cc3ccsc3)CC2)n1C` | -6.826% | -2.618% | 10.28% |
| `COCCSCC(=O)NCc1ccc(N(C)C)cc1` | 10.38% | -0.361% | -22.92% |
| `CCSc1ncc(-c2nccn2CCN(C)C)cn1` | 12.2% | 2.124% | -31.32% |
| `[H][C@@]12C[C@@H](C(=O)Nc3cnccn3)CN(S(C)(=O)=O)[C@]1([H])CCO2` | -1.255% | - | -68.31% |
| `CCCn1nc2c(cc1=O)CN(Cc1nc(C)c3ccccc3n1)CC2` | 17.07% | 3.422% | -2.225% |
| `NC(=O)COc1cccc(CN2CCCC2c2ccc[nH]2)c1` (configuration not stated) | -3.011% | -4.581% | -21.36% |
| `Cn1cccc1C(=O)N1CCN(CC2CC2)c2ncccc2C1` | 19.71% | -0.5247% | 57.2% |
| `CCCc1cc(NCCC2CCCOC2)n2nccc2n1` (configuration not stated) | 17.68% | 4.125% | -22.21% |
| `Cc1ccccc1-c1cc(NC(=O)NC2CCC(O)CC2)n(CCO)n1` (configuration not stated) | 18.58% | -0.7524% | -152.8% |
| `O=C1CCCN1CCN1CCCCC1Cn1cccn1` (configuration not stated) | 24.99% | -7.319% | -41.22% |
| `Cc1cccnc1Nc1nccc(C2CN(CC(N)=O)C2)n1` | 11.92% and 20.26% | -1.333% | -3.481% |
| `Cn1ccc2c(C(=O)N3CCC(C(N)=O)CC3)cccc21` | 5.769% | -3.819% | 51.42% |
| `N#Cc1ccc(S(=O)(=O)NCCn2ccnc2)cc1Cl` | 14.88% | 3.008% | 2.737% |
| `Cc1csc2c(C3CCN(CCOc4ccccc4F)CC3)nc(C)n12` | -46.06% | 5.277% | -6.748% |
| `COCc1nnc2n1CCN(Cc1ccoc1)C2.O=C(O)C(F)(F)F` | 4.613% | - | -14.59% |
| `CCn1cc(NC(=O)NCC(O)CN2CCc3ccccc3C2)cn1` (configuration not stated) | 22.02% | 3.831% | -23.66% |
| `O=C(Cn1ccc2ccccc21)Nc1cc(N2CCOCC2)ncn1` | 11.65% and 27.26% | 12.08% | -10.05% |
| `Nc1nnc(SCC(=O)c2cc3c(cc2Cl)NC(=O)C3)s1` | 30.84% | 1.022% | -29.45% |
| `Cc1c(F)cccc1NC(=O)N(C(C)CS(C)(=O)=O)C1CC1` (configuration not stated) | -11.97% | 0.3112% | -11.75% |
| `Cc1cnc(C)c(N2CC[C@H](N3CCOCC3)[C@H](CCCO)C2)n1` | 20.15% | -6.502% | 9.865% |
| `CC(C)N[C@@H]1CO[C@H](CNC(=O)c2ccccc2)[C@H]1O` | 11.46% | -3.585% | -17.92% |
| `Cn1cc(N2CC3(CCN(CC4CC4)C3)CC2=O)cn1.O=C(O)C(F)(F)F` (configuration not stated) | 6.158% | - | 24.5% |
| `CCc1cc(=O)[nH]c2nnc(SCC(=O)N3CCC(C)CC3)n12` | 11.05% | 5.083% | -5.979% |
| `O=C(COCC1CC1)N1CCCC1c1nc(-c2ccccc2F)c[nH]1` (configuration not stated) | -11.64% | -1.952% | -37.52% |
| `COCc1ncc(CN2CC[C@@H](NC(=O)c3cccnc3)[C@H](O)C2)cn1` | -34.24% | 1.782% | -20.91% |
| `COCC(C)N1CCc2onc(-c3ccc(C(F)(F)F)cc3)c2C1` (configuration not stated) | 23% | -1.013% | - |
| `CC(C)c1noc(CCCC(=O)NCCOc2ccccc2)n1` | 25.34% | 0.6189% | -1.422% |
| `CCN(CC)S(=O)(=O)CCNC(=O)N(C)C(C)c1ccccn1` (configuration not stated) | 21.56% | -4.686% | 1.685% |
| `COc1cc(CN2CCCCCC2c2cccs2)cc(OC)c1O` (configuration not stated) | 18.82% | -2.348% | -14.93% |
| `CO[C@H]1CN(C(=O)c2cn3cc(C)ccc3n2)CC[C@@]12CCCO2` | 1.64% | 1.508% | -1.112% |
| `Cc1nc(-c2ccccc2F)sc1C(=O)N1CCN(C)CC1` | 21.11% | 2.256% | 37.21% |
| `O=C(c1ccc(-n2cccn2)nc1)N1CCCN(c2cccnn2)CC1` | -6.703% | 0.5473% | -1.456% |
| `CC(C)n1cnc(C2CN(C)c3ccc(C(=O)NC4CCCC4)cc32)n1` (configuration not stated) | 21.79% and -5.545% | -0.8765% | -32.79% |
| `CC(=O)NS(=O)(=O)c1ccc2c(c1)N(C)CCC2` | 12.33% | 3.44% | -14.44% |
| `Cn1cccc1CN1CCc2ncnc(-c3cccnc3)c2CC1` | 4.742% | -2.813% | -35.43% |
| `CN1CCN(c2ncnc3c2CCN(S(=O)(=O)C2CC2)CC3)CC1.O=C(O)C(F)(F)F` | 19.11% | - | -13.78% |
| `CCn1ccnc1CN1CCCN(C(=O)c2cncnc2C)CC1` | 6.933% | -0.09709% | -49.39% |
| `O=C(O)[C@@H]1CN(C(=O)CSCC2CC2)C[C@H]1c1ccncc1` | 35.04% | -3.43% | -44.58% |
| `[H][C@]12CN(c3ncccn3)C[C@@]1([H])S(=O)(=O)CC[C@@H]2C(=O)NCC(C)C` | 25.39% | - | -5.76% |
| `Cc1cnn(CC2CCCN2C(=O)Cc2n[nH]c3ccccc23)c1` (configuration not stated) | 24.34% | -3.226% | -12.17% |
| `O=C1CCCN1Cc1ccc(C(=O)N2CCCC2c2cccs2)cc1` (configuration not stated) | 1.74% | 1.864% | - |
| `Cc1csc(C2(NC(=O)CCNC(=O)C(C)(C)C)CCCC2)n1` | -8.077% | -3.609% | 6.562% |
| `c1nc2c(c(C3CCOC3)n1)CCN(Cc1ccoc1)CC2` (configuration not stated) | -10.29% | 4.554% | -26.75% |
| `Cc1cccc(C(=O)N(C)CC(=O)N2CCCC2)c1C` | 10.91% | -4.295% | 3.813% |
| `C[C@@H]1CN(C2CCN(Cc3nn(C)c4cccc(Cl)c34)CC2)C[C@H](C)O1` | 31.88% | -0.7819% | 10.53% |
| `O=S(=O)(Cc1ccccc1)NCC1CCCN(Cc2cccs2)C1` (configuration not stated) | 20.12% | -0.7819% | -9.222% |
| `CC1CCN(C(CNC(=O)CCn2cccn2)c2cccs2)CC1` (configuration not stated) | 12.96% | 1.954% | 21.04% |
| `O=C1CCNc2ncc(-c3ccc(Cl)cc3)cc2CN1C1CC1` | -5.867% | - | 26.19% |
| `COc1cccc(CN2C[C@@H]3COC[C@]3(COCc3ccncc3)C2)c1` | - | 1.831% | - |
| `Cc1cccc(CN2CCC(c3nnc(-c4scnc4C)o3)CC2)c1` | 8.369% and 9.778% | - | 17.28% |
| `CN(CC(=O)NCC(O)c1cccc(F)c1)C(=O)OC(C)(C)C` (configuration not stated) | 31.19% | -1.886% | -50.06% |
| `O=C(O)c1cc(C2CC2)nc2c(Cl)cnn12` | 17.81% | -4.402% | -3.734% |
| `[H][C@@]12OCCN(S(=O)(=O)C3CC3)[C@@]1([H])CC[C@H]2OCC(C)C` | 19.75% | - | -7.004% |
| `COCc1nc(CNc2cc(C)nc(N3CCCCC3)n2)no1` | 36.39% | -1.55% | -19.32% |
| `Cc1nc2c(c(NCC(O)c3ccccc3Cl)n1)CCNCC2` (configuration not stated) | 52.68% | 3.276% | -31.73% |
| `CN(CCNC(=O)Nc1nccs1)Cc1ccc(F)cc1` | 53.32% | -0.4591% | -30.3% |
| `COc1ccccc1C(=O)Nc1ccc([C@@H](O)[C@H]2COCC(=O)N2)cc1` | - | -2.365% | - |
| `CC(=O)Nc1nc(C(=O)N2CCCCC2Cn2cccn2)cs1` (configuration not stated) | 24.87% | -4.389% | - |
| `COc1cccc(-c2cnc(C3CCNCC3)cn2)c1` | -8.294% and -3.365% | -6.203% | -29.22% |
| `Cn1nc(C(=O)N2CCOCC2)c2c1CN(CC1CCC1)C2` | 23.43% | - | -83.92% |
| `CN(C)[C@H]1CCCCN(C(=O)c2cccc(N3CCS(=O)(=O)CC3)c2)C1` | -11.54% | 0.161% | 11.69% |
| `O=C(CCNC(=O)c1ccoc1)Nc1cccc(F)c1` | 14.29% | -4.475% | 20.87% |
| `NC(=O)c1cccc2nc([C@H]3CCN(Cc4ccccn4)C3)[nH]c12` | 53.25% | -2.517% | 21.84% |

Some entries from above, unchanged:

SMILES,A,B,C
CCOc1ccc(N2CCCN=C2NC(=O)c2cccc(C)c2)cc1,12.53%,-1.554%,-8.804%
COc1cc(CN2CCCCCC2c2cccs2)cc(OC)c1O (configuration not stated),18.82%,-2.348%,-14.93%
N#Cc1ccc(S(=O)(=O)NCCn2ccnc2)cc1Cl,14.88%,3.008%,2.737%
Cc1cnn(CC2CCCN2C(=O)Cc2n[nH]c3ccccc23)c1 (configuration not stated),24.34%,-3.226%,-12.17%
CC(C)c1nn(C)c(N2CCOCC2)c1CNC(C)c1ccccn1 (configuration not stated),10.88%,-7.012%,19.39%
Cn1cccc1C(=O)N1CCN(CC2CC2)c2ncccc2C1,19.71%,-0.5247%,57.2%
O=C1CCCN1Cc1ccc(C(=O)N2CCCC2c2cccs2)cc1 (configuration not stated),1.74%,1.864%,-